Test results taken from PMC11843548.

Molecular target: FLAG-tagged small-splice variant of TNC (full-length)
Assay: co-IP; FLAG-tagged TNC constructs and V5-tagged Wnt-2 co-overexpressed in HEK293; lysates in NDLB (50 mM Tris-HCl pH 7.4, 300 mM NaCl, 5 mM EDTA, 1% Triton X-100), 1 mg/mL, anti-FLAG antibody overnight at 4 °C, Protein A/G magnetic beads, 5 washes; V5-Wnt2 detected by immunoblotting

binding: binds weakly
B1: V5-tagged Wnt-2 (ligand, UniProt P09544 26-360)
chain: SWWYMRATGGSSRVMCDNVPGLVSSQRQLCHRHPDVMRAISQGVAEWTAECQHQFRQHRWNCNTLDRDHSLFGRVLLRSSRESAFVYAISSAGVVFAITRACSQGEVKSCSCDPKKMGSAKDSKGIFDWGGCSDNIDYGIKFARAFVDAKERKGKDARALMNLHNNRAGRKAVKRFLKQECKCHGVSGSCTLRTCWLAMADFRKTGDYLWRKYNGAIQVVMNQDGTGFTVANERFKKPTKNDLVYFENSPDYCIRDREAGSLGTAGRVCNLTSRGMDSCEVMCCGRGYDTSHVTRMTKCGCKFHWCCAVRCQDCLEALDVHTCKAPKNADWTTAT

Results are given in words; binding and its absence hold for the method and conditions named. Binding seen in cells or lysates may run through a third protein. A result given as binding can be weak or reduced; the word gives no strength. Sequences can lack the tags named with a protein.
